According to US7605153B2, “Use of paullone derivatives for the production of medicaments for the treatment of mucoviscidosis and diseases related to protein addressing errors in cells” (Centre National de la Recherche Scientifique - CNRS, priority 2005, dated 2009):
At least one read-out could not be matched to a standard name with certainty. Residues, ends and D or L forms follow the SMILES beside them. *: point of attachment. Cbz = O=C(OCc1ccccc1)*

Amino acid sequences for entries named in this document (tags omitted). Chains listed by the source or under a name are the forms on record and can include a tag or linker.
UniProt P13569, with tags, fused parts or gaps DEL508-508: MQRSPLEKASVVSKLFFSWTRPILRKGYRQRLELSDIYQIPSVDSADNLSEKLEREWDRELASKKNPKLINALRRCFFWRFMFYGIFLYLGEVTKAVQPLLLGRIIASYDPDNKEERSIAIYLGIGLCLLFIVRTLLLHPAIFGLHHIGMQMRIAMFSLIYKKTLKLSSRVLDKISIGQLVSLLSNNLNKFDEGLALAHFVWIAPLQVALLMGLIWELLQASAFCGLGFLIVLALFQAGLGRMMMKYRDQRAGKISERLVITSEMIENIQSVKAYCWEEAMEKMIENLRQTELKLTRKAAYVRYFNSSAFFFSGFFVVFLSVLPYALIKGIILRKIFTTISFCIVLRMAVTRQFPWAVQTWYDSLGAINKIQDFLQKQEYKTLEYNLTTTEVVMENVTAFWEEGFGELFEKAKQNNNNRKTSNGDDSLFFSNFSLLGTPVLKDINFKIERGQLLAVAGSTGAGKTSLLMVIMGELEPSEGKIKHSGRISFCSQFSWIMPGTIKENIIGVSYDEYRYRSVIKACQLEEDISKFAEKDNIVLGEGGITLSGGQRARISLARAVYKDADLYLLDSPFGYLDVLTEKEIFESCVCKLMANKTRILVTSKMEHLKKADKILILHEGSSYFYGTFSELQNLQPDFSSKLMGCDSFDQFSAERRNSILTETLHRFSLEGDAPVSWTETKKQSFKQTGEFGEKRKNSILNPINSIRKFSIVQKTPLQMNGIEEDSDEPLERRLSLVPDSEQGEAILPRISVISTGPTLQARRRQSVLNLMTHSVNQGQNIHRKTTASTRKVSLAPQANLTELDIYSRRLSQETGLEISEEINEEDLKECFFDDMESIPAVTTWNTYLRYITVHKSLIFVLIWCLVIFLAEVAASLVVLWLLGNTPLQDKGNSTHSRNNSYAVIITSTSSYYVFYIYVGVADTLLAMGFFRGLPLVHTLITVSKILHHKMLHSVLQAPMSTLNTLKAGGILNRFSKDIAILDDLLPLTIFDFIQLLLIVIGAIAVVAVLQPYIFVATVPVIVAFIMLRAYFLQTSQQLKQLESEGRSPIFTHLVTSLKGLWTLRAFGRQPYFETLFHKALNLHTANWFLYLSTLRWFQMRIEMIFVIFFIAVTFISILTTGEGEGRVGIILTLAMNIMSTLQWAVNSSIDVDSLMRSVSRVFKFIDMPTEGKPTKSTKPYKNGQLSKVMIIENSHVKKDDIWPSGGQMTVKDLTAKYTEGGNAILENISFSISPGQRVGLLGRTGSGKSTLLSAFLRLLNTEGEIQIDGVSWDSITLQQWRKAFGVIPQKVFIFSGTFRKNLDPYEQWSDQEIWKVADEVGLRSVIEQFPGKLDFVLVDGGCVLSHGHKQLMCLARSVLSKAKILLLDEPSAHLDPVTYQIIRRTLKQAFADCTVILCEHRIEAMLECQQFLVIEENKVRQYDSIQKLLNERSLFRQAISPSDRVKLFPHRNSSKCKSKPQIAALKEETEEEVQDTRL

Biological target: T1, delF508-CFTR (Homo sapiens, UniProt P13569, DEL508-508)
T1 construct: CF15 human lung epithelial cells homozygous for the delF508 deletion; endogenous in cells; host or cells: CF15 human nasal/lung epithelial cells, homozygous delF508
Assay: iodide efflux, delF508 addressing in CF15 cells
Assay type: cell-based
Details: in the presence of kenpaullone
Protocol: CF15 cells: CF15 cells are human nasal epithelial cells expressing the AF508-CFTR gene.
The cells are incubated in an appropriate medium in 24-well plates. […] The iodide equilibrates on either side of the cell membrane. The following steps are performed using a robot (MultiPROBE, Packard): the loading medium is rinsed with efflux medium in order to eliminate extracellular radioactivity. The supernatant is collected every minute into haemolysis tubes and the medium is replaced by an equivalent volume of medium (500 μl). No drug is added to the samples taken in the first three minutes in order to obtain a stable baseline characterising the passive exit of I ions. The 7 samples that follow are obtained in the presence of the molecule to be tested. At the end of the experiment, the cells are lysed by adding 500 μl of 0.1 N NaOH/0.1% SDS (30 min), which allows determining the level of radioactivity remaining inside the cell. The radioactivity present in the haemolysis tubes is measured as counts per minute (cpm) using a gamma counter (Cobra II, Packard). […] This iodide flux is represented by a graph. In order to quantify the iodide efflux due to administration of the tested molecule, the relative flux is calculated as follows in order to ignore the basal flux: Relative velocity (min^−1)=Rpeak−Rbasal. […] The results are presented in the form of a mean+/−SEM. […]

CC(C)C[C@@H](C=O)NC(=O)[C@H](CC(C)C)NC(=O)[C@H](CC(C)C)NC(=O)OCc1ccccc1 [MG132] (Cbz-Leu-Leu-Leu-aldehyde)
modulation of the kenpaullone effect (ER chaperon machinery competition, iodide efflux): No modulation of the effect of kenpaullone
